Assay results: PMC4380364

Target: T1, L-selectin (cell surface, Jurkat T lymphocytes) (Homo sapiens?) (UniProt P14151)
T1 sequence: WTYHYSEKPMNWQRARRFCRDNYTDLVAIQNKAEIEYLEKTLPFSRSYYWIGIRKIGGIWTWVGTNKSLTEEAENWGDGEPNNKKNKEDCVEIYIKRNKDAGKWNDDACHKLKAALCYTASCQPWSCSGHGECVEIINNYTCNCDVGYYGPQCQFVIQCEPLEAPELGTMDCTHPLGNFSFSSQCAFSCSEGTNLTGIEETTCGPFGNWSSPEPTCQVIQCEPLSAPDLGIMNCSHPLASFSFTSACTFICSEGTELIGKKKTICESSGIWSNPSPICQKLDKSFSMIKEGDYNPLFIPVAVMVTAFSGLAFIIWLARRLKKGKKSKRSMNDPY
Assay: competition (flow cytometry)
Details: Jurkat cells, competition with 100 nM FITC-DREG56 for 35 min at 4°C, washed in PBS, 2% PFA fix, SLeX assay in PBS with 1% human serum albumin, protein on the cell surface, single-stranded DNA

Sequence	binding result (100 nM, vs FITC-SLeX (50 ug/ml))	binding result (100 nM, vs FITC-SLeX, much less inhibition than LS-Multi-Aptamer)	binding result (vs 100 nM FITC-DREG56, LS-Multi-Aptamer out-competed at lower concentrations than this)
TAGCCAAGGTAACCAGTACAAGGTGCTAAACGTAATGGCTTCGGCTTAC [LS-Aptamer (monovalent)]	binds more weakly		
AGAGGCTACAGCGATAAGTCGACATTGCTGACCGTACCTAGTAATACGT [SC-Aptamer (monovalent scrambled)]		binds more weakly	binds more weakly

The exact form of at least one protein or probe is not confirmed. At least one result comes from cells or an extract, where the contact may be indirect. The comparison behind a weaker result is the experiment's own reference, which may not be listed here. At least one verdict was read from the data and is not stated in words by the source.
